{"source": "PubChem BioAssay AID743458 (Peter MacCallum Cancer Centre, 2014)", "screen": "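Identify genes whose loss lifts vorinostat resistance in colon cancer cells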 (follow-up of hits)", "cell system": "human HCT116-VR colon cancer cells made resistant to vorinostat", "reagent": "single siRNA or pool against human genes, 25 nM per single siRNA", "time to read-out": "about 72 h after transfection, including 24 h of drug", "challenge": "vorinostat, 2.5 µM final, for 24 h", "read-out": "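Live-cell fluorescent viability and luminescent caspase 3/7 activity after vorinostat treatment, background subtracted, mean of duplicate plates, as fold change over mock-transfected wells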", "direction": "viability relative to mock: higher = more living cells than mock; caspase activity relative to mock: higher = more apoptosis than mock", "hit rule": "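An siRNA counts as active if classed as reduced viability or as caspase activation, otherwise inactive; a hit class needed wells that remained healthy in the absence of drug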", "note": "The whole screen tested about 1,800 reagents; this is a random part of them. Of all reagents, 732 (41%) are marked active. 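Calls are per siRNA reagent; a gene was deemed confirmed only if most of its four siRNAs scored.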 A number with no mark means an inactive call. Reagents against one gene are numbered here."}
{"gene knocked down":"PCGF6 (polycomb group ring finger 6)","reagent no.":1,"viability relative to mock":1,"caspase activity relative to mock":1.32,"viability hit class":"no change","caspase hit class":"no change"}
{"gene knocked down":"PCGF6 (polycomb group ring finger 6)","reagent no.":2,"viability relative to mock":0.91,"caspase activity relative to mock":1.73,"viability hit class":"no change","caspase hit class":"no change"}
{"gene knocked down":"PCGF6 (polycomb group ring finger 6)","reagent no.":3,"viability relative to mock":0.98,"caspase activity relative to mock":0.97,"viability hit class":"no change","caspase hit class":"no change"}
{"gene knocked down":"PCGF6 (polycomb group ring finger 6)","reagent no.":4,"viability relative to mock":0.9,"caspase activity relative to mock":0.89,"viability hit class":"no change","caspase hit class":"no change"}
{"gene knocked down":"LRP3 (LDL receptor related protein 3)","reagent no.":1,"viability relative to mock":"0.62 (active)","caspase activity relative to mock":4.03,"viability hit class":"no change","caspase hit class":"caspase activation"}
{"gene knocked down":"LRP3 (LDL receptor related protein 3)","reagent no.":2,"viability relative to mock":"0.86 (active)","caspase activity relative to mock":3.26,"viability hit class":"no change","caspase hit class":"caspase activation"}
{"gene knocked down":"LRP3 (LDL receptor related protein 3)","reagent no.":3,"viability relative to mock":"0.59 (active)","caspase activity relative to mock":4.96,"viability hit class":"no change","caspase hit class":"caspase activation"}
{"gene knocked down":"LRP3 (LDL receptor related protein 3)","reagent no.":4,"viability relative to mock":"0.49 (active)","caspase activity relative to mock":2.45,"viability hit class":"reduced viability","caspase hit class":"no change"}
{"gene knocked down":"CATSPERT (catsper channel auxiliary subunit tau)","reagent no.":1,"viability relative to mock":0.84,"caspase activity relative to mock":1.17,"viability hit class":"no change","caspase hit class":"no change"}
{"gene knocked down":"CATSPERT (catsper channel auxiliary subunit tau)","reagent no.":2,"viability relative to mock":"0.55 (active)","caspase activity relative to mock":2.22,"viability hit class":"reduced viability","caspase hit class":"no change"}
{"gene knocked down":"CATSPERT (catsper channel auxiliary subunit tau)","reagent no.":3,"viability relative to mock":0.92,"caspase activity relative to mock":1.02,"viability hit class":"no change","caspase hit class":"no change"}
{"gene knocked down":"CATSPERT (catsper channel auxiliary subunit tau)","reagent no.":4,"viability relative to mock":"0.44 (active)","caspase activity relative to mock":3.77,"viability hit class":"reduced viability","caspase hit class":"caspase activation"}

Reagents listed above marked active, once more:
{"gene knocked down":"LRP3 (LDL receptor related protein 3)","reagent no.":1,"viability relative to mock":"0.62 (active)","caspase activity relative to mock":4.03,"viability hit class":"no change","caspase hit class":"caspase activation"}
{"gene knocked down":"LRP3 (LDL receptor related protein 3)","reagent no.":2,"viability relative to mock":"0.86 (active)","caspase activity relative to mock":3.26,"viability hit class":"no change","caspase hit class":"caspase activation"}
{"gene knocked down":"LRP3 (LDL receptor related protein 3)","reagent no.":3,"viability relative to mock":"0.59 (active)","caspase activity relative to mock":4.96,"viability hit class":"no change","caspase hit class":"caspase activation"}
{"gene knocked down":"LRP3 (LDL receptor related protein 3)","reagent no.":4,"viability relative to mock":"0.49 (active)","caspase activity relative to mock":2.45,"viability hit class":"reduced viability","caspase hit class":"no change"}
{"gene knocked down":"CATSPERT (catsper channel auxiliary subunit tau)","reagent no.":2,"viability relative to mock":"0.55 (active)","caspase activity relative to mock":2.22,"viability hit class":"reduced viability","caspase hit class":"no change"}
{"gene knocked down":"CATSPERT (catsper channel auxiliary subunit tau)","reagent no.":4,"viability relative to mock":"0.44 (active)","caspase activity relative to mock":3.77,"viability hit class":"reduced viability","caspase hit class":"caspase activation"}
